# Laboratory results reported in PubChem BioAssay AID540256 (National Center for Advancing Translational Sciences (NCATS), 2011).
# Hit rate of the full screen: of about 300,000 compounds, about 3,700 (1.2%) were called active. Inconclusive means that the source gave no clear call. Such entries were picked first, then a sample of the others. Calls come from the whole dose curve; tested in HEK293 cells. A potency beside an inconclusive call is a rough fit, not a confirmed value.
# Experiment: qHTS for Inhibitors of binding or entry into cells for Lassa Virus; note: nearly all actives have a fitted effect of over 50% in size
# Conditions: Lassa virus pseudotype entry inhibition, cell reporter; activity change, negative = inhibition: at 37.9 µM (top of the series) unless noted
# % is set by controls: 0 for no effect and ±100 for the full control effect; potency is the fitted concentration of half-maximal effect.
Compound,"activity change, negative = inhibition",Potency
COc1ccc2c(c1)/C(=N/OC(=O)c1cccs1)CCC2,inactive: -2.26%,
O=C(CSc1ccc(-c2ccccc2)nn1)c1ccccc1,,"inconclusive: 14.1 µM [inhibitor, partial curve, poor fit]"
CN1CCN(C(=O)CCCN2C(=O)/C(=C/c3ccccc3)SC2=S)CC1,,"inconclusive: 7.08 µM [inhibitor, partial curve, poor fit]"
Fc1ccc(-n2ncc3c(N4CCC(Cc5ccccc5)CC4)ncnc32)cc1,,"inconclusive: 11.2 µM [activator, partial curve, poor fit]"
O=S(=O)(c1ccc(Cl)cc1)N1CCC(O)(CN2CCN(Cc3ccccc3)CC2)CC1,inactive: -28.9%,
CCCCCCCN1C2=NCCCN2c2ccccc21,,"inconclusive: 12.6 µM [inhibitor, partial curve, poor fit]"
O=C(Cn1c(=O)oc2ccccc21)Nc1nc(-c2ccc(Br)cc2)cs1,,"inconclusive: 35.5 µM [inhibitor, single point]"
COc1ccc(S(=O)(=O)N(C)C)cc1NC(=O)Cc1ccc(S(=O)(=O)N2CCOCC2)s1,,"inconclusive: 2.51 µM [inhibitor, partial curve, poor fit]"
O=C(NC1CCCC1)C(c1cccs1)N(C(=O)c1ccco1)c1ccc2c(c1)OCCO2 (stereo not given),,"inconclusive: 10 µM [inhibitor, partial curve, poor fit]"
C#CCN1C(C)=C(C(=O)OC)C(c2cccc([N+](=O)[O-])c2)C(C(=O)OCC)=C1C (stereo not given),,"inconclusive: 11.6 µM [inhibitor, partial curve]"
O=C(NCCN1CCOCC1)c1cc(-c2ccc(Cl)c(Cl)c2)on1,inactive: 11.7%,
CCN1CCN(c2nc(Nc3ccc(C)c(C)c3)nc(N)c2[N+](=O)[O-])CC1,inactive: -3.64%,
Cc1[nH]nc2c1C(c1cccs1)C1=C(CCCC1=O)N2 (stereo not given),,"inconclusive: 1.26 µM [activator, single point]"
COc1cccc(CC(=O)Nc2ccc(-c3nc4ccccc4s3)cc2)c1,inactive: 19.7% [at 46.1 µM],
COc1ccccc1C1Nc2c(sc3nc(C)cc(C)c23)C(=O)N1c1ccccc1 (stereo not given),,"inconclusive: 11.2 µM [inhibitor, single point]"
Cc1ccccc1-c1nc2cc(Cl)ccc2o1,,"inconclusive: 11.6 µM [activator, partial curve, poor fit]"
OCc1cc(C(O)CNCCCCCCOCCCCc2ccccc2)ccc1O (stereo not given),,"inconclusive: 0.58 µM [inhibitor, single point]"
CC(C)[C@H](N)c1nnc(SC/C=C/c2ccccc2)o1,inactive: -21.6%,
CCC(=NCC1CCCO1)c1c(O)n(-c2ccc(Cl)cc2)c(=O)[nH]c1=O (stereo not given),,"inconclusive: 0.891 µM [inhibitor, full curve, poor fit]"
CC1(C)CC(=O)C=C(NCCN2CCN(C(=S)NC3CCCCC3)CC2)C1,inactive: 19.6% [at 46.1 µM],
CN(Cc1cccc(F)c1)C(=O)c1ccc(S(=O)(=O)N2CCCCCC2)cc1,,"inconclusive: 14.1 µM [inhibitor, single point]"
CCOc1cc(/C=C2\SC(N3CCCC(C)C3)=NC2=O)ccc1O (stereo not given),,"inconclusive: 0.891 µM [inhibitor, full curve, poor fit]"
Cc1cccc(N2CCN(S(=O)(=O)c3ccc(-c4cc(C(F)(F)F)on4)s3)CC2)c1C,inactive: 4.39% [at 46.1 µM],
COC(=O)N/N=C/c1cccnc1,inactive: 1.79%,

# Another view of part of the listing above.
Compound	activity change, negative = inhibition	Potency
C#CCN1C(C)=C(C(=O)OC)C(c2cccc([N+](=O)[O-])c2)C(C(=O)OCC)=C1C (stereo not given)		inconclusive: 11.6 µM [inhibitor, partial curve]
O=C(NCCN1CCOCC1)c1cc(-c2ccc(Cl)c(Cl)c2)on1	inactive: 11.7%	

# (further entries)

Compound,"activity change, negative = inhibition",Potency
Cc1onc(-c2ccccc2)c1C(=O)c1ccccc1,inactive: 8.18%,
Fc1ccc(CSc2ncnc3scc(-c4ccccc4)c23)cc1,inactive: -0.802%,
O=C(COC(=O)c1ccc(S(=O)(=O)N2CCOCC2)cc1)Nc1nc(-c2ccccc2)cs1,inactive: 9.67%,
C=CCN=C1S/C(=C/c2ccc([N+](=O)[O-])cc2)C(=O)N1CC=C,inactive: -5.01%,
CCOC(=O)N1CCC(NC(=O)c2cnn(-c3ccc(F)cc3F)c2C2CCN(C(=O)OC(C)(C)C)CC2)CC1,,"inconclusive: 31.6 µM [activator, single point]"
Cc1ccccc1NC(=O)c1ccc2c(O)c(S(=O)(=O)c3ccccc3)c(=O)[nH]c2c1,inactive: 18.7% [at 46.1 µM],
COc1ccc(NC(=O)C(c2cc3c(cc2[N+](=O)[O-])OCO3)N(C)c2ccccc2)cc1 (stereo not given),,"inconclusive: 3.16 µM [inhibitor, single point]"
Cc1nn(Cc2c(Cl)cccc2Cl)c(C)c1NC(=O)c1cn(-c2ccccc2)nc1-c1ccccc1,,"inconclusive: 4.47 µM [inhibitor, full curve, poor fit]"
CC(O)C(NC(=O)OCc1ccccc1)C(=O)OCc1ccccc1 (stereo not given),,"inconclusive: 1.78 µM [inhibitor, partial curve, poor fit]"
COc1ccccc1C(=O)NC(C)c1cccc2ccccc12 (stereo not given),inactive: -16.9%,
CCOC(=O)c1ccc(N2Cc3ccccc3C2=N)cc1,inactive: 27%,
COCC(C)n1c(SCC(=O)Nc2cc(C)on2)nc2ccccc2c1=O (stereo not given),inactive: -29.4%,
COc1cccc(NC(=O)CNC(=O)Cn2cnc3sc(C)c(C)c3c2=O)c1,,"inconclusive: 35.5 µM [activator, single point]"
COc1ccc(-n2c(SCC(=O)Nc3ccc4c(c3)OCO4)nc3ccccc3c2=O)cc1,,"inconclusive: 0.231 µM [activator, full curve, poor fit]"
CC1CCCN(CCOCCOc2ccccc2-c2ccccc2)C1 (stereo not given),,"inconclusive: 5.8 µM [inhibitor, full curve, poor fit]"
COc1ccc(-c2nc(CS(=O)CC(=O)NC3CCCCC3C)c(C)o2)cc1 (stereo not given),inactive: 22.6% [at 46.1 µM],
C=CCc1cccc2cc(C(=O)NCCc3c(C)[nH]c4c(C)cccc34)c(=O)oc12,,"inconclusive: 35.5 µM [activator, single point]"
CN1CCN(S(=O)(=O)c2cccc(C(=O)NCCC3=CCCCC3)c2)CC1,,"inconclusive: 35.5 µM [inhibitor, single point]"
Brc1ccc(-c2nc(-c3cccnc3)no2)o1,inactive: 1.86%,
Cc1cc(C)nc(NC(N)=NCCc2ccccc2)n1,,"inconclusive: 8.91 µM [inhibitor, partial curve, poor fit]"
COC(=O)N1C(c2ccccc2)=Cc2ccccc2C1C1(C(=O)OC)CCCC1=O (stereo not given),,inconclusive: 0.0008 µM [activator]
CCOC(=O)c1c(C)[nH]c(C)c1C(=O)COC(=O)CCOc1ccccc1OC,,"inconclusive: 18.3 µM [inhibitor, single point]"
Cc1ccc(NC(=O)[C@@H]2CCCN2S(=O)(=O)c2ccccc2F)cc1,inactive: 1.07%,
O=C1CSC(=S)N1/N=C/c1cc(Br)c(O)c(Br)c1,inactive: 7.13%,

# A section from the list above:
Compound,"activity change, negative = inhibition",Potency
CN1CCN(S(=O)(=O)c2cccc(C(=O)NCCC3=CCCCC3)c2)CC1,,"inconclusive: 35.5 µM [inhibitor, single point]"
Brc1ccc(-c2nc(-c3cccnc3)no2)o1,inactive: 1.86%,
Cc1cc(C)nc(NC(N)=NCCc2ccccc2)n1,,"inconclusive: 8.91 µM [inhibitor, partial curve, poor fit]"
COC(=O)N1C(c2ccccc2)=Cc2ccccc2C1C1(C(=O)OC)CCCC1=O (stereo not given),,inconclusive: 0.0008 µM [activator]

# (more compounds)

Compound,"activity change, negative = inhibition",Potency
CCOCC(=O)Nc1nc2ccc(OC)cc2s1,,"inconclusive: 10 µM [inhibitor, partial curve, poor fit]"
O=Cc1cc2ccccc2nc1SCCCF,,"inconclusive: 6.31 µM [inhibitor, partial curve, poor fit]"
CC(C)(C)OC(=O)N1CCCC(C(=O)Nc2cccc(C(=O)N3CCOCC3)c2)C1 (stereo not given),,"inconclusive: 31.5 µM [activator, single point]"
CC(=O)c1c(C)[nH]c(C(=O)OCC(=O)Nc2sc3c(c2C#N)CCC(C)C3)c1C (stereo not given),,"inconclusive: 39.8 µM [activator, partial curve, poor fit]"
CCCN(CC(=O)Nc1ccccc1C)C(=O)c1cccc(S(=O)(=O)N2CCc3ccccc3C2)c1,,"inconclusive: 10 µM [inhibitor, partial curve, poor fit]"
COC(=O)Cn1ncc(N2C3CC(CC(C)(C)C3)C2C)c(Cl)c1=O (stereo not given),,"inconclusive: 18.4 µM [inhibitor, partial curve, poor fit]"
C=COCCn1c(-c2nonc2N)nc2ccccc21,inactive: -4.87%,
O=C(NCCc1ccccc1)C1c2ccccc2C(=O)N1Cc1cccs1 (stereo not given),inactive: -25%,
Cc1cc(C)cc(NS(=O)(=O)c2ccc(N3CCCCS3(=O)=O)cc2)c1,,"inconclusive: 35.5 µM [inhibitor, partial curve, poor fit]"
CCc1nnc(NC(=O)c2ccc(S(=O)(=O)N(C)c3ccccc3)cc2)o1,,"inconclusive: 7.3 µM [inhibitor, partial curve]"
CC1(C)NC(=O)N(CC(=O)OCc2cc(=O)n3cc(Br)ccc3n2)C1=O,,"inconclusive: 35.5 µM [activator, single point]"
Cc1ccc(Nc2n[nH]c(C)c2[N+](=O)[O-])cc1C,,"inconclusive: 0.316 µM [activator, full curve, poor fit]"
O=C(COC(=O)c1cccc(F)c1)NC1CC1,,"inconclusive: 0.891 µM [inhibitor, single point]"
C=CCNC(=S)Nc1ccc(F)cc1F,inactive: -10%,
CSCCC(NC(=O)COc1ccccc1)C(=O)N1CCN(c2cccc(C(F)(F)F)c2)CC1 (stereo not given),,"inconclusive: 17.8 µM [inhibitor, single point]"
CCc1ccc(C(=O)COC(=O)CNC(=O)c2ccco2)cc1,,"inconclusive: 35.5 µM [activator, partial curve, poor fit]"
COc1ccccc1C(=O)Nc1ccc(C)c(S(=O)(=O)N2CCCCC2)c1,,"inconclusive: 10 µM [inhibitor, partial curve]"
Cc1ccc(CNC(=O)C2CCCN(S(=O)(=O)c3cn(C)cn3)C2)cc1 (stereo not given),,"inconclusive: 25.1 µM [activator, single point]"
O=C(CSCc1cc(=O)n2nc(C3CC3)sc2n1)Nc1ccccc1Cl,inactive: 4.68% [at 46.1 µM],
O=C(Cn1c(=O)c(C(F)(F)F)nc2ccccc21)Nc1cccc(Br)c1,inactive: 2.38% [at 46.1 µM],
Cc1nc2ccc([N+](=O)[O-])cc2nc1C,inactive: 25.9% [at 46.1 µM],
CCC(=O)NC(c1ccccc1Cl)c1c(O)ccc2ccccc12 (stereo not given),inactive: -13.7%,
